Results deposited as PubChem BioAssay AID652259 (Drosophila RNAi Screening Center, 2013)

Assay: 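Knock-downs that push a Wingless-driven reporter up or down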 (primary screen)
Cell system: Drosophila clone 8 imaginal disc epithelial cells
Reagents: long dsRNA against Drosophila genes
Treatment: pathway stimulated by co-transfected Wingless expression plasmid
Read-out: 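Firefly luciferase from a tcf-site Wingless reporter, measured alongside co-transfected Renilla luciferase that tracks transfection; pathway stimulated by a Wingless plasmid; the firefly-to-Renilla ratio is not deposited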
Direction: firefly reporter light: higher = more Wg reporter light, before normalisation; Renilla control light: higher = more transfected or surviving cells
Rule for the call: 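Strong candidates differ from their plate mean by at least two out of four per-plate statistical tests; weak candidates meet just one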
Meaning of the calls: active = candidate regulator (raises or lowers reporter); inactive = not a candidate
In all, the deposit lists about 22,000 reagents; below is an unselected part of those that have a named target and a result. In the full data, 233 (1.1%) got an active call. 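Light values are raw, unnormalised plate reads; the ratio scores behind the reporter calls were not deposited.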 Entries without a mark were called inactive. The record does not give: the amount of reagent, the time to read-out, the dose of the treatment.

Silencing of Dnali1 (Dynein axonemal light intermediate chain 1) [DRSC16158] came out at: firefly reporter light, replicate 1 = 7244; Renilla control light, replicate 1 = 2935.
For CG6656 [DRSC16085], the values are firefly reporter light, replicate 1 = 2866; firefly reporter light, replicate 2 = 9826; Renilla control light, replicate 1 = 1056; Renilla control light, replicate 2 = 3011.
Knock-down of ppk (pickpocket) [DRSC03595] came out at: firefly reporter light, replicate 1 = 2032; firefly reporter light, replicate 2 = 5857; Renilla control light, replicate 1 = 1101; Renilla control light, replicate 2 = 2392.
Osi18 (Osiris 18) [DRSC12181] gave firefly reporter light, replicate 1 = 14624; Renilla control light, replicate 1 = 4224.
With knock-down of CG13707 [DRSC08316] the results were firefly reporter light, replicate 1 = 1570; firefly reporter light, replicate 2 = 10826; Renilla control light, replicate 1 = 861; Renilla control light, replicate 2 = 3339.
CG13739 [DRSC06410] scored firefly reporter light, replicate 1 = 2560; firefly reporter light, replicate 2 = 4342; Renilla control light, replicate 1 = 168; Renilla control light, replicate 2 = 445.
With knock-down of CG5412 [DRSC15796], the record shows firefly reporter light, replicate 1 = 2624; firefly reporter light, replicate 2 = 4960; Renilla control light, replicate 1 = 1101; Renilla control light, replicate 2 = 1788.
Bruce (BIR repeat containing ubiquitin-conjugating enzyme) [DRSC16015] gave firefly reporter light, replicate 1 = 7325; Renilla control light, replicate 1 = 1946.

2 entries from above, showing only “firefly reporter light, replicate 1”:
Osi18 (Osiris 18) [DRSC12181]	14624
CG13707 [DRSC08316]	1570

Next records follow.
For ND-B8 (NADH dehydrogenase (ubiquinone) B8 subunit) [DRSC00449] the deposit lists firefly reporter light, replicate 1 = 4329; firefly reporter light, replicate 2 = 5719; Renilla control light, replicate 1 = 947; Renilla control light, replicate 2 = 1856.
dpp (decapentaplegic) [DRSC00118] gave firefly reporter light, replicate 1 = 13946; Renilla control light, replicate 1 = 10746.
For dpp (decapentaplegic) [DRSC00121], the values are firefly reporter light, replicate 1 = 25291; Renilla control light, replicate 1 = 11528.
dpp (decapentaplegic) [DRSC00813] gave firefly reporter light, replicate 1 = 2864; firefly reporter light, replicate 2 = 6853; Renilla control light, replicate 1 = 1040; Renilla control light, replicate 2 = 2121.
After knock-down of l(2)SH0834 (lethal (2) SH0834) [DRSC02854], the screen gave firefly reporter light, replicate 1 = 2226; firefly reporter light, replicate 2 = 6288; Renilla control light, replicate 1 = 717; Renilla control light, replicate 2 = 2411.
Cyp4d2 (Cytochrome P450 4d2) [DRSC18458] showed firefly reporter light, replicate 1 = 3968; firefly reporter light, replicate 2 = 5580; Renilla control light, replicate 1 = 1225; Renilla control light, replicate 2 = 1709.
Knock-down of CG11378 [DRSC18627] came out at: firefly reporter light, replicate 1 = 24716; Renilla control light, replicate 1 = 11979.
After knock-down of CG33325 [DRSC12699], the record shows firefly reporter light, replicate 1 = 4070; Renilla control light, replicate 1 = 1488.
After knock-down of CG41099 [DRSC21049], the record shows firefly reporter light, replicate 1 = 11552; Renilla control light, replicate 1 = 8156.
Against CG41099 [DRSC21051] the deposit lists firefly reporter light, replicate 1 = 12736; Renilla control light, replicate 1 = 8064.
